# Data as given in the supplement of paper PMC12889115.
# The list shows a part of the results. Values are raw readings; no control value is given beside them.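 In the initial screen, polymyxin B was used at a concentration that permeabilizes Salmonella's outer membrane but not its inner membrane. Maximum growth was set by DMSO wells with or without polymyxin B. Since plates varied, data were ranked per plate, and compounds giving the lowest OD600 advanced as hits.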
# System: Salmonella enterica serovar Typhimurium SL1344
# Test: bacterial growth OD600 after 18 h with compound and polymyxin B; higher = more bacterial growth (less inhibition)
# Conditions: 50 µM, Mueller-Hinton broth
SMILES,bacterial growth OD600 (polymyxin B 0.75 µg/mL),bacterial growth OD600 (polymyxin B 1 µg/mL)
COCCn1cnc2cc(NC(=O)C3CCCCC3)cc(C(=O)N3CCC(c4ccncc4)CC3)c21,0.817,–
CCOc1cccc(CN(C)CC2CCCN(CCc3ccc(OC)cc3)C2)c1 (stereo not drawn),–,0.836
O=C(CCC(=O)N1CCOc2c(cc(-c3cccnc3)cc2OCCc2cccs2)C1)c1ccc(F)cc1,0.893,–
COc1ccccc1C(=O)Nc1ccnn1C1CCN(Cc2cnc(SC)nc2)CC1,–,0.906
COC(=O)[C@@H](NC(=O)CCC1(Cc2ccc(F)c(OC)c2)CCC(=O)N1)c1ccccc1 (stereo partly drawn),0.828,–
CCN1CCCC1CNC(=O)C1CCN(C2CCN(Cc3ccccc3C)CC2)CC1 (stereo not drawn),–,0.856
Cc1cccc(C(=O)Nc2nc3c(s2)C(=O)CC(C(=O)NCC2(N4CCOCC4)CCCC2)C3)c1 (stereo not drawn),0.858,–
O=C(CCC1CCN(C(=O)Cc2cccc3ccccc23)CC1)NC1CC1,–,0.871
